This note sets out measurements from article PMC11488099.

Amino acid sequences for entries named in this document (tags omitted).
UniProt P48432: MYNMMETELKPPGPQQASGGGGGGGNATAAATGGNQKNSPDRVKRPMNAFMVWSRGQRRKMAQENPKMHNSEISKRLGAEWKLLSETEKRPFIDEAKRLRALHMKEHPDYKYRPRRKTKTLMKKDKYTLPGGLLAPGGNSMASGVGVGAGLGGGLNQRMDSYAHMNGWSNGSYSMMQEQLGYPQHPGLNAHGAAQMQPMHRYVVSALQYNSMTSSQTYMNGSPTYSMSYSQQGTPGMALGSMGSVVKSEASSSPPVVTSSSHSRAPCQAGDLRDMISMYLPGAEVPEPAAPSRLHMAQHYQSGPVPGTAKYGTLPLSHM
UniProt P45481: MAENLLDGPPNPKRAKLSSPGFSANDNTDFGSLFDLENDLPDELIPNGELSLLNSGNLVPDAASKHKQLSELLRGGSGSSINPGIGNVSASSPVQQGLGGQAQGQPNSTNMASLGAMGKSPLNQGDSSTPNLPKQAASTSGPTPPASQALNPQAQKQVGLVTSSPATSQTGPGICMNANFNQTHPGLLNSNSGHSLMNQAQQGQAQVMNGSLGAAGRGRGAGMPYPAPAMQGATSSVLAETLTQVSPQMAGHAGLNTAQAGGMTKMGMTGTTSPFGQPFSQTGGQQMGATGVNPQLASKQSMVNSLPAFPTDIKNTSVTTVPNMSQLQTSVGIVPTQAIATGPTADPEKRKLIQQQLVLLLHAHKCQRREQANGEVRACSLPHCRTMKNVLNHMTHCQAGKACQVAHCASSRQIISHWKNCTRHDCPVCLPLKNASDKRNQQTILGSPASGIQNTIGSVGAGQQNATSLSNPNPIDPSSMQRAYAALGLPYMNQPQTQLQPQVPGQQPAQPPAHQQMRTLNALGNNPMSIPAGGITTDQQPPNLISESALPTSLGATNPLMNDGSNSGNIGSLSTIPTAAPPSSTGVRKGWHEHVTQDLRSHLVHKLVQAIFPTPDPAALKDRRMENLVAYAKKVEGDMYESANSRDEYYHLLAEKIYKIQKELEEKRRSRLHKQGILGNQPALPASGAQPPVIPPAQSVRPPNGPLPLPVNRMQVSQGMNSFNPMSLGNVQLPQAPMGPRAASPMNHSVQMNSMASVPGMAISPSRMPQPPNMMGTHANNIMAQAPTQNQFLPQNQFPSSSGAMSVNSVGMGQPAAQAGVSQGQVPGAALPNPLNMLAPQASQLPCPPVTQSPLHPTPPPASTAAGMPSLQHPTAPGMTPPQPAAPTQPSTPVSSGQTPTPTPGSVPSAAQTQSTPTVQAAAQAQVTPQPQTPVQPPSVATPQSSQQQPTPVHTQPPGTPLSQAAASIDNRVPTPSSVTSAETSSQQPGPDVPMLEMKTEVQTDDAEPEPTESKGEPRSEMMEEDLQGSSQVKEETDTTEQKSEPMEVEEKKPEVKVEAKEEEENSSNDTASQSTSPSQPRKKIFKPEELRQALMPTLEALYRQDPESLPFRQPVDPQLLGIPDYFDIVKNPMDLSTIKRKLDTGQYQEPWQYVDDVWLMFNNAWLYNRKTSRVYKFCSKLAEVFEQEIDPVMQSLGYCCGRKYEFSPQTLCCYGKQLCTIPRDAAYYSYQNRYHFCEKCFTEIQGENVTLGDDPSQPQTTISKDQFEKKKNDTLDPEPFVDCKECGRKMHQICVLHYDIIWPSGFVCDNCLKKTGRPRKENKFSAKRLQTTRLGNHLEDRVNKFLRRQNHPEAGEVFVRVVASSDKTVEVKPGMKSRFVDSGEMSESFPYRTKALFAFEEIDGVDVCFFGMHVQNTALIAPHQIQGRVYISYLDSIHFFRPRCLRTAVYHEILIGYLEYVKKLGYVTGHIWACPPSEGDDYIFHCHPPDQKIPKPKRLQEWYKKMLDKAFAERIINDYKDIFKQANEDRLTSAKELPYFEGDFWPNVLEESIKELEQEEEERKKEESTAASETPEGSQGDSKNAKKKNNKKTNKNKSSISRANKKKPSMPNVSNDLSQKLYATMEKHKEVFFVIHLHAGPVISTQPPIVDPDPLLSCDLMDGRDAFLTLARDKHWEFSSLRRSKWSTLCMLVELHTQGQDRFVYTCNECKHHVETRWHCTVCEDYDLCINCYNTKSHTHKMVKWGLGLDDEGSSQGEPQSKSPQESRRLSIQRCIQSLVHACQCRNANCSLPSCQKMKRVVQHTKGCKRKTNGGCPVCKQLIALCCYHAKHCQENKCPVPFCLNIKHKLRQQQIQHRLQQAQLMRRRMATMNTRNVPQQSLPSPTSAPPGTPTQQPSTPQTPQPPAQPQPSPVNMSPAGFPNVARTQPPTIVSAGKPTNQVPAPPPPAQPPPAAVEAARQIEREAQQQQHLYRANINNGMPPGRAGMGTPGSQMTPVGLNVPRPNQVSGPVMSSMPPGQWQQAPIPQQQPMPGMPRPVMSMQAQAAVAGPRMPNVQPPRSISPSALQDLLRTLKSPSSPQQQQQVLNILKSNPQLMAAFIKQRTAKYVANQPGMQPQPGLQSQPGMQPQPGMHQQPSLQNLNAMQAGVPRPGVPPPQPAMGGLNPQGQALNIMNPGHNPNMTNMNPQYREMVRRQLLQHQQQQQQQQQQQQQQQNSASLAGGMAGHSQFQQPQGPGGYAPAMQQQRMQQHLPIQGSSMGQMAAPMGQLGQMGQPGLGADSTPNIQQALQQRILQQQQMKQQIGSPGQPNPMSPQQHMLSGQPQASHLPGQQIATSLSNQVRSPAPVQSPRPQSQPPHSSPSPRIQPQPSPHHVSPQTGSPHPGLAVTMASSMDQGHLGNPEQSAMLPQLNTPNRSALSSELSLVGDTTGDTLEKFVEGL

Results are given in words; binding and its absence hold for the method and conditions named. Binding seen in cells or lysates may run through a third protein. Some results given as binding are weak or reduced against the parent protein; the word gives no strength.

The target of the test is Sox2 (mouse (endogenous in SVZ NPCs)) (UniProt P48432). As to the kind of experiment: co-IP; lysates (200-300 µg) of SVZ NPCs differentiated for 7 days without (PBS) or with metformin (1 µM), incubated with 6 µg anti-Sox2 antibody and protein A magnetic beads at 4 °C overnight; beads rinsed 3 times with lysis buffer (25 mM Tris pH 7.4, 10 mM NaCl, 2 mM EDTA, 1 mM EGTA, 0.5% Triton-100, 10% glycerol); blotted with CBP and Sox2 antibodies.

As for “CREB-binding protein (CBP) (from UniProt P45481 1-2441)”, the binding result was “binds”.
